In patent US7989417B2 (Bracco Imaging S.p.A., priority 2003, dated 2011):

Assay: general procedure: Fmoc solid-phase peptide synthesis; Rink Amide-Novagel HL resin (0.6 mmol/g); HBTU/DIEA; HOBT/DIC
Details: for conjugation yield: conjugation step; for isolated yield / isolated mass: whole synthesis; for isolated yield: overall; for isolated mass: scale 0.3 mmol

| Substance | conjugation yield [%] | isolated yield [%] | isolated mass [mg] |
| --- | --- | --- | --- |
| Pyr-His-Trp-Ser-Tyr-DLys(DOTA-Gly-Adca3)-Leu-Arg-Pro-Gly-NH2 | 68 |  |  |
| N-[(3β,5β, 12α)-3-[[[[[4,7,10-Tris(carboxymethyl)-1,4,7,10-tetraazacyclododec-1-yl]acetyl]amino]acetyl]amino]-12-hydroxy-24-oxocholan-24-yl]-L-glutaminyl-L-tryptophyl-L-alanyl-L-valyl-glycyl-L-histidvl-L-leucvl-L-methioninamide |  | 9 | 12.8 |
| Pyr-His-Trp-Ser-Tyr-DLys(H-Gly-Adca3)-Leu-Arg-Pro-Gly-NH2 | 41 |  |  |
| N-[(3β,5β,7α,12α)-3-[[[[[4,7,10-Tris(carboxymethyl)-1,4,7,10-tetraazacyclododec-1-yl] acetyl]amino]acetyl]amino]-7,12-dihydroxy-24-oxocholan-24-yl]-L-glutaminyl-L-tryptophyl-L-alanyl-L-valyl-glycyl-L-histidyl-L-leucyl-L-methioninamide |  | 4 | 3.6 |
